Laboratory results: the supplement of paper PMC6411743
± gives the standard deviation of the averaged measurements. This is a selection; strong and weak results do not stand in their true shares.

By UniProt entry, the sequences of proteins in these tests, tags left out. Where a name states a change or a piece, a line headed by the entry shows the natural chain unless it says otherwise.
UniProt P47224: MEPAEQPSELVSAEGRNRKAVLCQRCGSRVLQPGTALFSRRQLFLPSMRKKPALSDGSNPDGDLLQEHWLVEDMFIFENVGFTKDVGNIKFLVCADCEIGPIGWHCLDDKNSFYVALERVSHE
UniProt P37268: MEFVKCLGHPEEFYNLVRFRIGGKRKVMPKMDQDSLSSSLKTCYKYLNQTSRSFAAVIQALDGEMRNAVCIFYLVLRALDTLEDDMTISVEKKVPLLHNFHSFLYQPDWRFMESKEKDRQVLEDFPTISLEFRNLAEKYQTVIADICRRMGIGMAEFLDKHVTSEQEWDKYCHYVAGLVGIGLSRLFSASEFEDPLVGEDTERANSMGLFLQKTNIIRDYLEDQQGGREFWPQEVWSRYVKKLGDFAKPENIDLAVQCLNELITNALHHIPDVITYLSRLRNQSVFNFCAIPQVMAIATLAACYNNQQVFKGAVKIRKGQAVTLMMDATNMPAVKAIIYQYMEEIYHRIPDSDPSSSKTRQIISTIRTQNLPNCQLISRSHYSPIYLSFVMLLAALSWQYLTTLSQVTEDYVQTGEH
UniProt P42336, whole entry: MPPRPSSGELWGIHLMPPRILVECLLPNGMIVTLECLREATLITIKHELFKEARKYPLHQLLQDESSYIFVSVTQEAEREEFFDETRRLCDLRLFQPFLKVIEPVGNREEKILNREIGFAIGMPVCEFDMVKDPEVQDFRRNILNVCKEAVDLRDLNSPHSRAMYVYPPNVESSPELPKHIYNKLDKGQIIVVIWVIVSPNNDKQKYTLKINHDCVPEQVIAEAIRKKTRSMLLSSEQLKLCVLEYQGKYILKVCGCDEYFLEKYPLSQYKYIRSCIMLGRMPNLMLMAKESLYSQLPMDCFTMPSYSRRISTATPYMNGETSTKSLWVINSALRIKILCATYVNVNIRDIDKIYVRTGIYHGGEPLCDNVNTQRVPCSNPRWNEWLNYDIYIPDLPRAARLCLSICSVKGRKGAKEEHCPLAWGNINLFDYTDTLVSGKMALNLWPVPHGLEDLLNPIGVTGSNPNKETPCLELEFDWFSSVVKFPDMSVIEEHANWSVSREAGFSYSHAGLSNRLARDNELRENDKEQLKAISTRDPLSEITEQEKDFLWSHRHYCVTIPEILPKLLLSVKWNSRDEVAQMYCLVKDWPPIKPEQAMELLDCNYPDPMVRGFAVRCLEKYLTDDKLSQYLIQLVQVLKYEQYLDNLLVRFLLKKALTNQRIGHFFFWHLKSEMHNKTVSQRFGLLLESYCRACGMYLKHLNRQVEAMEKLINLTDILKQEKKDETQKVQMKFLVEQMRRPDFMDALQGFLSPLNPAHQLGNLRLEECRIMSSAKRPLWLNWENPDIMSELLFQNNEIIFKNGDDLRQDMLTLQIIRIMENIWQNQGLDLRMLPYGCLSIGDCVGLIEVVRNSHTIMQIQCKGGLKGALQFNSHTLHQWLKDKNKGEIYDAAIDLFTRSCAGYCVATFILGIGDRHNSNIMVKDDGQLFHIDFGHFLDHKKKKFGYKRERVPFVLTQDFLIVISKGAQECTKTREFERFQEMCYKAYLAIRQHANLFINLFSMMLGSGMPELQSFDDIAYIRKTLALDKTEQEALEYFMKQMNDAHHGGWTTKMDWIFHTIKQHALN
UniProt P49736, whole entry: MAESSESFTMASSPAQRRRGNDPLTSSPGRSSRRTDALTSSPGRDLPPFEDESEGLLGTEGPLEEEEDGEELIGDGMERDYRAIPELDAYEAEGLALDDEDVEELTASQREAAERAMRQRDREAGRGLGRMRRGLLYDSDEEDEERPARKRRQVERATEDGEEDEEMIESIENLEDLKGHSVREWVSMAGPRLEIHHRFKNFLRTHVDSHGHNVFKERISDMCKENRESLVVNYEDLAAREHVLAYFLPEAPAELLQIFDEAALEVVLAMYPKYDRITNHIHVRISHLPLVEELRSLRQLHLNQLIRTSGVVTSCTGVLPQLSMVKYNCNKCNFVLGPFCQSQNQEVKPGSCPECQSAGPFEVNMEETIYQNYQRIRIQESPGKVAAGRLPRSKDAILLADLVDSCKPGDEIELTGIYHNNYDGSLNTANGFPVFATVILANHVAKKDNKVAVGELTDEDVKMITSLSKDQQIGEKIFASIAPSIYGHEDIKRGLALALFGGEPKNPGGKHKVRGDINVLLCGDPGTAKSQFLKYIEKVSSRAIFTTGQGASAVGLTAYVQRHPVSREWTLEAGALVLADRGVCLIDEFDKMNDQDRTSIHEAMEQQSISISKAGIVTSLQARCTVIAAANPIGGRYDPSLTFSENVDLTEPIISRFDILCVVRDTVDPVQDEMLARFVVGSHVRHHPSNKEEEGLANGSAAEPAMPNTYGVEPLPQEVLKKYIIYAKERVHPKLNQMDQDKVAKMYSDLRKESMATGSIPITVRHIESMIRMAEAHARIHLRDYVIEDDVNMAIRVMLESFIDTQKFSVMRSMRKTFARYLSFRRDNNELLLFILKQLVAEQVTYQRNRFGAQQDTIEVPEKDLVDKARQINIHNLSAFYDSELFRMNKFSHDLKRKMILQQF
UniProt P37802: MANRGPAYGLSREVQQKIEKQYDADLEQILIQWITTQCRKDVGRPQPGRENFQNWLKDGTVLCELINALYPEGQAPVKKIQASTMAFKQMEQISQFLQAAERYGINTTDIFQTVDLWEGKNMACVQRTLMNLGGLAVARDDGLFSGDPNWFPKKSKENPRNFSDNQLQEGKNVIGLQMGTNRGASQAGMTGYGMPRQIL
UniProt P49327, whole entry, looked up: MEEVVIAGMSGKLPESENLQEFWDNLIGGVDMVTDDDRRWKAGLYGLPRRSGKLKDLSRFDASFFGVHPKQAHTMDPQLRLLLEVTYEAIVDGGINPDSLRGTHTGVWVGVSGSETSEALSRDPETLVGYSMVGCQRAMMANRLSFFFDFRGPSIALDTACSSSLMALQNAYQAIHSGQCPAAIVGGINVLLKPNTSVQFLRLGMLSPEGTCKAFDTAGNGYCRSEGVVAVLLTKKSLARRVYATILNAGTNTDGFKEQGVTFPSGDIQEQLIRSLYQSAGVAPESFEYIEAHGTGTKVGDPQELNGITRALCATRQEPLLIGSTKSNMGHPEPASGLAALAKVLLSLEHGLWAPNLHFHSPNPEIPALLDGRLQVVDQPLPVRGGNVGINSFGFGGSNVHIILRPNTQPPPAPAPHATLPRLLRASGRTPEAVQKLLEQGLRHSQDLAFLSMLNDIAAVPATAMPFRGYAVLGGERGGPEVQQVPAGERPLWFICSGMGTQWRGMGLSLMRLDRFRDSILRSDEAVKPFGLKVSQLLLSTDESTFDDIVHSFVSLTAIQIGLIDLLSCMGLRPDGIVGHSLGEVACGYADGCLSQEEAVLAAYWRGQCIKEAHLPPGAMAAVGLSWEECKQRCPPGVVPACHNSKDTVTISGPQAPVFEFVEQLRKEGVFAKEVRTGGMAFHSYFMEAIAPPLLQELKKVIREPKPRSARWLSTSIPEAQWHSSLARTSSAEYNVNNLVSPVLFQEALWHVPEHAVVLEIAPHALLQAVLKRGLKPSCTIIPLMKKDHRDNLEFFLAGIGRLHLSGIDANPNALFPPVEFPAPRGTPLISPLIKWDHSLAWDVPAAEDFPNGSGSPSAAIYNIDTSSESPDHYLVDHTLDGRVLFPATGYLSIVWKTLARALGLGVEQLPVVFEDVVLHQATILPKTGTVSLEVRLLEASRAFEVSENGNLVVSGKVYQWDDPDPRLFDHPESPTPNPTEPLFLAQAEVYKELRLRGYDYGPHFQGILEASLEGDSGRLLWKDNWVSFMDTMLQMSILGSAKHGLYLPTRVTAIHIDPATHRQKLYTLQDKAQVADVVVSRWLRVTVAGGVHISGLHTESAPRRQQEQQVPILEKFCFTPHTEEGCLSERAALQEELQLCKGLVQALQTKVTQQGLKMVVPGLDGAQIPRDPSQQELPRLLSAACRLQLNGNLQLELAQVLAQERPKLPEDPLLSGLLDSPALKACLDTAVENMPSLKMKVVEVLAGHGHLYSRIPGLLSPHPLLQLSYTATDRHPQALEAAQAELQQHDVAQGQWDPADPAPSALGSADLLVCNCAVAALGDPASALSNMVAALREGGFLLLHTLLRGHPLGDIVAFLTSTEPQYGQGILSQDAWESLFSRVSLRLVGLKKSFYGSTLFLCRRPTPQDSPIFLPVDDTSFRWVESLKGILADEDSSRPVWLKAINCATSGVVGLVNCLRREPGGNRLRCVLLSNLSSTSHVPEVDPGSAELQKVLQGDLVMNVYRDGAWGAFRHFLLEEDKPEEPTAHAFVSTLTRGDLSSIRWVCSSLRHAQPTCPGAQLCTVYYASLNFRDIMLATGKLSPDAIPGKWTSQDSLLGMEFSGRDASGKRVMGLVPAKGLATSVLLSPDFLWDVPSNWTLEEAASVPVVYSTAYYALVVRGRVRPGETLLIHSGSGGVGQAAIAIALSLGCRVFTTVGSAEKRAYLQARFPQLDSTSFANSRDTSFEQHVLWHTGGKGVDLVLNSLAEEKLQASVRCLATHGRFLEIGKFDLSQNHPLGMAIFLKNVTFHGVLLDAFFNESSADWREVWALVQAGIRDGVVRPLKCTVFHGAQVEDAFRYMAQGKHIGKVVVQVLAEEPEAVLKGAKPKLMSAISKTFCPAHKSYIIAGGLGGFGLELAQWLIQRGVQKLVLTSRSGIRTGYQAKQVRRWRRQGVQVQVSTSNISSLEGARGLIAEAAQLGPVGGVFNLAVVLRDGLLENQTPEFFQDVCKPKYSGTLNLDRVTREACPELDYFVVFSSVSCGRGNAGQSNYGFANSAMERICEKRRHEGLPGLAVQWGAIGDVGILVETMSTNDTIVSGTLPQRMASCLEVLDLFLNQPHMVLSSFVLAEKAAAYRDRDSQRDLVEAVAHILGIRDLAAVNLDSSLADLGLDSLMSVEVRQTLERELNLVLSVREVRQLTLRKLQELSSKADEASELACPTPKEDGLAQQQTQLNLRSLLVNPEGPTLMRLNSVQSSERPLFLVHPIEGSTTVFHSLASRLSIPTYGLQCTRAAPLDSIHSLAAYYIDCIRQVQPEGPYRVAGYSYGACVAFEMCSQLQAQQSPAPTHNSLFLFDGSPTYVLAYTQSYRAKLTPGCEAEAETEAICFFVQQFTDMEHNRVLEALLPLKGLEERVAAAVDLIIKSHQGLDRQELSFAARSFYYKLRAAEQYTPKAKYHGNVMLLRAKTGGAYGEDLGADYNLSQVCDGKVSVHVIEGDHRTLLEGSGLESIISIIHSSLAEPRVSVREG
UniProt P46734: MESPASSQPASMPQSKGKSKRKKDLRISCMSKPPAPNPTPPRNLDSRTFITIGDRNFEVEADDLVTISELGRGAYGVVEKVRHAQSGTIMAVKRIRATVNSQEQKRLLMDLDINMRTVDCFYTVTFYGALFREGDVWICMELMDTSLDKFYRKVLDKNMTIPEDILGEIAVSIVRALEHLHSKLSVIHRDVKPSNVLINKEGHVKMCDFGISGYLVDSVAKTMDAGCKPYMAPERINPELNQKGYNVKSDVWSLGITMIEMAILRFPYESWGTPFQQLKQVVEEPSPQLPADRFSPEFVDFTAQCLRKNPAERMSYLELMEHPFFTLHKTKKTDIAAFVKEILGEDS
UniProt P48729: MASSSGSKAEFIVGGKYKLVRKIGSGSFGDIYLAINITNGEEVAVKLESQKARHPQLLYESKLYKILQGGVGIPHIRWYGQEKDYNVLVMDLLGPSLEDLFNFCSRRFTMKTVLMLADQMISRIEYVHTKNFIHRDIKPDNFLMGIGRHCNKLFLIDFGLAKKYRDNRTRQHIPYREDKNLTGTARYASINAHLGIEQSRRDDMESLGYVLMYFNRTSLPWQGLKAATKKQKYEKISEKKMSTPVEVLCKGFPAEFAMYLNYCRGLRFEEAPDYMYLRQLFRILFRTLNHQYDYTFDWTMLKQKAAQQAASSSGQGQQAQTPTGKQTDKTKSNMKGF
UniProt P36551: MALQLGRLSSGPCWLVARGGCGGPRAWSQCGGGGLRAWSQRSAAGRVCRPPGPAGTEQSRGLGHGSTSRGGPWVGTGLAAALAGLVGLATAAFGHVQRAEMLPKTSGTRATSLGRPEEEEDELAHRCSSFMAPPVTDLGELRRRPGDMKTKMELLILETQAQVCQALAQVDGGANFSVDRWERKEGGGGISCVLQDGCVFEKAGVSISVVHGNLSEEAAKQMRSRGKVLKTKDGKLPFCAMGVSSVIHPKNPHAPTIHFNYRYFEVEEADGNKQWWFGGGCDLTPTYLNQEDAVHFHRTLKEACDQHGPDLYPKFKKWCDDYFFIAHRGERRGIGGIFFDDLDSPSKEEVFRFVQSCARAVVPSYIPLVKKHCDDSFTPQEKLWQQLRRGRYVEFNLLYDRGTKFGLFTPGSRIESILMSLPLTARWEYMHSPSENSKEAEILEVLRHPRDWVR
UniProt P51148: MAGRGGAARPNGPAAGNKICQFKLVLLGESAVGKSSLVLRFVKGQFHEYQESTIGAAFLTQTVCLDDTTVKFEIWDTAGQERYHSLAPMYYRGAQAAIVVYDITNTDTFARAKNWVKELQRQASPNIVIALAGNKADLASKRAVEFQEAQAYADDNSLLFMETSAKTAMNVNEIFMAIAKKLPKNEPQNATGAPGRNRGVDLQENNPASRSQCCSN

Compound: Nc1ncnc2c1ncn2[C@@H]1O[C@H](COP(=O)(O)OP(=O)(O)OP(=O)(O)O)[C@@H](O)[C@H]1O [adenosine triphosphate]
Test: NP40-soluble protein abundance relative to vehicle (solubility fold change) (ratio); higher = more soluble protein in presence of ATP
Summary of the method: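 Jurkat crude lysate (Dounce-homogenised) was treated with eight concentrations from 0.1 to 10 mM for 10 min at room temperature, then 3 min at 37 °C. It was solubilised with 0.8% NP40 and benzonase (60 min, 4 °C) and ultracentrifuged, and the supernatant was TMT-labelled for LC-MS/MS. Intensities were vsn-normalised, and the value is the fold change against the NP40-processed vehicle per replicate, from three independent experiments.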

Target | NP40-soluble protein abundance (concentration: 1mM) | NP40-soluble protein abundance (concentration: 2mM) | NP40-soluble protein abundance (concentration: 4mM) | NP40-soluble protein abundance (concentration: 6mM) | NP40-soluble protein abundance (concentration: 8mM) | NP40-soluble protein abundance (concentration: 10mM)
LMAN1 (UniProt P49257) | 1.02 ± 0.051 | 0.995 ± 0.032 | 0.966 ± 0.039 | 0.995 ± 0.063 | 0.992 ± 0.04 | 0.967 ± 0.054
CDC34 (UniProt P49427) | 0.98 ± 0.11 | 0.94 ± 0.025 | 1.02 ± 0.051 | 1.01 ± 0.065 | 0.916 ± 0.041 | 0.985 ± 0.072
RABIF (UniProt P47224) | 0.939 ± 0.026 | 0.986 ± 0.014 | 0.938 ± 0.042 | 0.936 ± 0.027 | 0.912 ± 0.046 | 0.905 ± 0.0093
ETV3 (UniProt P41162) | 0.865 ± 0.099 | 0.953 ± 0.1 | 0.923 ± 0.062 | 1.06 ± 0.18 | 0.893 ± 0.017 | 1.007 ± 0.006
FDFT1 (UniProt P37268) | 1.03 ± 0.11 | 1.02 ± 0.065 | 0.99 ± 0.064 | 0.936 ± 0.12 | 0.99 ± 0.075 | 0.967 ± 0.048
UniProt P36873 and related entries | 0.942 ± 0.098 | 0.935 ± 0.034 | 0.958 ± 0.1 | 0.925 ± 0.093 | 0.994 ± 0.092 | 0.948 ± 0.03
PIK3CA (UniProt P42336) | 1.07 ± 0.13 | 1.01 ± 0.13 | 1.01 ± 0.091 | 0.951 ± 0.14 | 1.04 ± 0.081 | 0.983 ± 0.071
MCM2 (UniProt P49736) | 1.01 ± 0.066 | 0.952 ± 0.053 | 0.925 ± 0.051 | 0.921 ± 0.044 | 0.951 ± 0.045 | 0.924 ± 0.052
UniProt P43155 and related entries | 0.999 ± 0.072 | 0.994 ± 0.072 | 1.01 ± 0.076 | 0.94 ± 0.14 | 1.02 ± 0.064 | 0.989 ± 0.022
CSK (UniProt P41240) | 1.02 ± 0.07 | 0.99 ± 0.061 | 0.97 ± 0.054 | 0.964 ± 0.093 | 0.995 ± 0.051 | 0.968 ± 0.055
TAGLN2 (UniProt P37802) | 0.862 ± 0.056 | 0.893 ± 0.021 | 0.877 ± 0.036 | 0.862 ± 0.016 | 0.861 ± 0.021 | 0.84 ± 0.048
STAT6 (UniProt P42226) | 0.983 ± 0.024 | 0.975 ± 0.013 | 0.952 ± 0.015 | 0.963 ± 0.048 | 0.9735 ± 0.0084 | 0.956 ± 0.023
FASN (UniProt P49327) | 1.04 ± 0.11 | 0.991 ± 0.07 | 0.987 ± 0.064 | 0.911 ± 0.066 | 1.02 ± 0.02 | 0.988 ± 0.038
UniProt P51157 and related entries | 1.01 ± 0.037 | 1.01 ± 0.037 | 1.007 ± 0.0076 | 0.975 ± 0.075 | 0.958 ± 0.028 | 0.975 ± 0.032
UniProt P46734 | 1.1 ± 0.034 | 1.11 ± 0.02 | 1.04 ± 0.048 | 1.04 ± 0.074 | 1.08 ± 0.032 | 1.04 ± 0.028
UniProt P48729 and related entries | 1.12 ± 0.11 | 1.08 ± 0.067 | 1.15 ± 0.095 | 1.08 ± 0.14 | 1.25 ± 0.14 | 1.21 ± 0.077
FEN1 (UniProt P39748) | 0.977 ± 0.063 | 0.919 ± 0.1 | 1.01 ± 0.028 | 1.041 ± 0.0066 | 0.998 ± 0.052 | 0.934 ± 0.028
NUP62 (UniProt P37198) | 0.994 ± 0.044 | 1 ± 0.037 | 0.985 ± 0.036 | 1.03 ± 0.029 | 0.999 ± 0.055 | 0.995 ± 0.06
COIL (UniProt P38432) | 1.13 ± 0.13 | 1.17 ± 0.16 | 1.36 ± 0.1 | 1.45 ± 0.21 | 1.49 ± 0.17 | 1.67 ± 0.13
CPOX (UniProt P36551) | 1.01 ± 0.035 | 0.995 ± 0.037 | 1.03 ± 0.071 | 0.954 ± 0.092 | 1.01 ± 0.011 | 1.03 ± 0.066
ACADSB (UniProt P45954) | 1.03 ± 0.06 | 1.02 ± 0.035 | 1.02 ± 0.045 | 0.983 ± 0.043 | 1.03 ± 0.064 | 1.02 ± 0.058
UniProt P51148 and related entries | 1.01 ± 0.077 | 1.02 ± 0.075 | 0.977 ± 0.029 | 0.946 ± 0.075 | 0.974 ± 0.073 | 1 ± 0.087
TUFM (UniProt P49411) | 1.02 ± 0.038 | 0.984 ± 0.027 | 0.977 ± 0.015 | 0.935 ± 0.037 | 1.04 ± 0.072 | 0.994 ± 0.038
GDI2 (UniProt P50395) | 1 ± 0.087 | 0.987 ± 0.053 | 0.967 ± 0.063 | 0.941 ± 0.086 | 0.975 ± 0.04 | 0.968 ± 0.049
HPCAL1 (UniProt P37235) | 0.953 ± 0.017 | 0.96002 ± 0.00077 | 0.946 ± 0.015 | 0.955 ± 0.016 | 0.929 ± 0.043 | 0.883 ± 0.044
HSD17B4 (UniProt P51659) | 0.954 ± 0.054 | 0.965 ± 0.039 | 0.93 ± 0.043 | 0.922 ± 0.073 | 0.939 ± 0.031 | 0.962 ± 0.031
UniProt P51531 and related entries | 1.09 ± 0.072 | 1.07 ± 0.059 | 1.09 ± 0.072 | 1.16 ± 0.12 | 1.09 ± 0.089 | 1.13 ± 0.089
MNAT1 (UniProt P51948) | 1 ± 0.053 | 0.994 ± 0.017 | 0.991 ± 0.03 | 1.06 ± 0.058 | 1.004 ± 0.0089 | 0.987 ± 0.016
UniProt P50053-2 | 0.977 ± 0.073 | 0.931 ± 0.044 | 0.92 ± 0.035 | 0.966 ± 0.075 | 0.894 ± 0.083 | 0.947 ± 0.046
UniProt P41743 | 1.02 ± 0.064 | 1.04 ± 0.065 | 0.999 ± 0.067 | 0.952 ± 0.06 | 1.01 ± 0.088 | 1.01 ± 0.13

Already shown: an excerpt of the list.
Target | NP40-soluble protein abundance (concentration: 1mM) | NP40-soluble protein abundance (concentration: 2mM) | NP40-soluble protein abundance (concentration: 4mM) | NP40-soluble protein abundance (concentration: 6mM) | NP40-soluble protein abundance (concentration: 8mM) | NP40-soluble protein abundance (concentration: 10mM)
CSK (UniProt P41240) | 1.02 ± 0.07 | 0.99 ± 0.061 | 0.97 ± 0.054 | 0.964 ± 0.093 | 0.995 ± 0.051 | 0.968 ± 0.055
TAGLN2 (UniProt P37802) | 0.862 ± 0.056 | 0.893 ± 0.021 | 0.877 ± 0.036 | 0.862 ± 0.016 | 0.861 ± 0.021 | 0.84 ± 0.048
STAT6 (UniProt P42226) | 0.983 ± 0.024 | 0.975 ± 0.013 | 0.952 ± 0.015 | 0.963 ± 0.048 | 0.9735 ± 0.0084 | 0.956 ± 0.023
FASN (UniProt P49327) | 1.04 ± 0.11 | 0.991 ± 0.07 | 0.987 ± 0.064 | 0.911 ± 0.066 | 1.02 ± 0.02 | 0.988 ± 0.038
UniProt P51157 and related entries | 1.01 ± 0.037 | 1.01 ± 0.037 | 1.007 ± 0.0076 | 0.975 ± 0.075 | 0.958 ± 0.028 | 0.975 ± 0.032
UniProt P46734 | 1.1 ± 0.034 | 1.11 ± 0.02 | 1.04 ± 0.048 | 1.04 ± 0.074 | 1.08 ± 0.032 | 1.04 ± 0.028
